PubChem BioAssay AID1159584 – Peter MacCallum Cancer Centre, 2016
The deposit covers about 18,000 reagents; shown is a part drawn at random. Not stated in the record: the amount of reagent, the time to read-out.

- Screen: 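Knock-downs that harm CDH1-null cells more than parental MCF10A cells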 (primary screen)
- Cells: human MCF10A breast epithelial cells, parental and CDH1-null
- Reagent: siRNA against human genes
- Detection: 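ATP luminescence (CellTiter-Glo) viability per line relative to mean mock wells over all plates, and the ratio of CDH1-null to parental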
- Scale: CDH1-null / parental viability ratio: higher = CDH1-null cells survive relatively better than parental; CDH1-null viability vs mock: higher = more viable CDH1-null cells; parental viability vs mock: higher = more viable parental cells

gene | CDH1-null / parental viability ratio | CDH1-null viability vs mock (fraction of mock) | parental viability vs mock (fraction of mock)
RTN4 | 1 | 0.8 | 0.8
PCSK2 | 1.33 | 0.6 | 0.45
CPNE3 | 0.95 | 0.84 | 0.88
RRAGD | 1.21 | 1.19 | 0.98
ATP13A2 | 0.72 | 0.65 | 0.9
ENTPD1 | 1.03 | 0.8 | 0.78
CCL28 | 1.06 | 0.66 | 0.62
ABCG5 | 0.8 | 0.59 | 0.74
NOD1 | 0.87 | 0.76 | 0.87
AEBP1 | 1.05 | 0.86 | 0.82
LRRC8B | 0.88 | 0.76 | 0.86
PPM1J | 1.1 | 0.86 | 0.78
SLC13A3 | 0.88 | 0.72 | 0.82
LRRC4 | 0.93 | 0.76 | 0.82
DNAJA3 | 1.29 | 0.84 | 0.65
MRS2 | 1.22 | 1 | 0.82
GNA14 | 0.89 | 0.64 | 0.72
TAF7L | 0.87 | 0.55 | 0.63
LENG9 | 0.76 | 0.48 | 0.63
TYW2 | 1.09 | 1.02 | 0.94
CPSF6 | 1.23 | 0.59 | 0.48
ACADS | 0.99 | 1.01 | 1.02
ERI2 | 0.86 | 0.84 | 0.98
CLIP4 | 1.09 | 0.74 | 0.68
TPST2 | 0.97 | 0.98 | 1.01
GMPS | 1.14 | 0.72 | 0.63
UNC45A | 1.09 | 0.75 | 0.69
MAGEF1 | 0.81 | 0.63 | 0.78
MZT2A | 0.86 | 0.8 | 0.93
DDN | 1.17 | 0.91 | 0.78
PPIL2 | 0.83 | 0.72 | 0.87
SCGB3A1 | 1.04 | 0.84 | 0.81
LZIC | 1.18 | 1.04 | 0.88
MOGAT2 | 0.93 | 0.78 | 0.84
GNG2 | 0.74 | 0.55 | 0.74
TRMT1 | 1.16 | 1 | 0.86
RDM1 | 0.96 | 1.08 | 1.12
FMNL2 | 0.94 | 1.02 | 1.09
RECQL | 0.95 | 0.99 | 1.04
PSME2 | 0.64 | 0.48 | 0.75
MFHAS1 | 0.9 | 0.77 | 0.86
L3MBTL1 | 0.98 | 0.94 | 0.96
USP13 | 0.91 | 0.42 | 0.46
SGCD | 1.51 | 0.92 | 0.61
C11orf71 | 1.08 | 0.55 | 0.51
HP | 1.14 | 0.64 | 0.56
EGFL6 | 1.79 | 0.43 | 0.24
SV2C | 1.14 | 0.82 | 0.72
LZTR1 | 1.12 | 0.76 | 0.68
TM2D3 | 0.64 | 0.68 | 1.06
SMTN | 0.95 | 0.61 | 0.64
TECTA | 0.89 | 1.02 | 1.14
SLC50A1 | 0.79 | 0.6 | 0.76
ISLR | 1.15 | 0.3 | 0.26
DNASE1L2 | 1.02 | 0.88 | 0.86
NIBAN3 | 0.93 | 0.65 | 0.7
TBC1D23 | 1.08 | 0.82 | 0.76
FCGR2B | 0.92 | 0.93 | 1.01
BDKRB2 | 1.36 | 1.06 | 0.78
CRYGS | 0.73 | 0.66 | 0.91
GPX7 | 0.94 | 0.6 | 0.64
ASF1A | 0.82 | 0.78 | 0.95
GMPPA | 1.29 | 0.8 | 0.62
ELL | 1.12 | 0.94 | 0.84
ARMH4 | 0.88 | 0.72 | 0.82
RBMS1 | 1.15 | 0.94 | 0.82
OR51B5 | 1.15 | 0.76 | 0.66
MATCAP1 | 1.26 | 0.88 | 0.7
P2RX1 | 1.37 | 0.86 | 0.63
RXYLT1 | 1.06 | 0.94 | 0.89
PDCL3 | 1.17 | 1.17 | 1
ALDH7A1 | 0.97 | 0.89 | 0.92
NELFCD | 0.69 | 0.5 | 0.72
KCNK10 | 1.16 | 0.88 | 0.76
FRRS1L | 1.01 | 0.77 | 0.76
MIS12 | 1.11 | 0.84 | 0.76
CELSR3 | 0.7 | 0.62 | 0.89
CISH | 0.97 | 0.84 | 0.87
IL11 | 1.18 | 0.45 | 0.38
HADHB | 0.96 | 0.86 | 0.9
ZNF611 | 1.14 | 0.96 | 0.84
VCPKMT | 1.13 | 0.88 | 0.78
HECTD4 | 1.12 | 0.99 | 0.88
EDRF1 | 1.13 | 0.88 | 0.78
IQCF2 | 1.13 | 0.7 | 0.62
HACD4 | 1.09 | 1.2 | 1.1
TRIP11 | 1.13 | 0.94 | 0.83

Laid out differently: entries from further up
gene	CDH1-null / parental viability ratio	CDH1-null viability vs mock (fraction of mock)	parental viability vs mock (fraction of mock)
CLIP4	1.09	0.74	0.68
TPST2	0.97	0.98	1.01
GMPS	1.14	0.72	0.63
UNC45A	1.09	0.75	0.69
MAGEF1	0.81	0.63	0.78
MZT2A	0.86	0.8	0.93
DDN	1.17	0.91	0.78
PPIL2	0.83	0.72	0.87
SCGB3A1	1.04	0.84	0.81
LZIC	1.18	1.04	0.88
MOGAT2	0.93	0.78	0.84
GNG2	0.74	0.55	0.74
TRMT1	1.16	1	0.86
